For 13 molecules, T/C and survivor count results are on record in PubChem BioAssay AID248 (DTP/NCI, 2004).

This experiment relates to L1210 leukemia ip in BDF1 mice, survival T/C. The experiment is described as follows: NCI In Vivo Anticancer Drug Screen. Data for tumor model L1210 Leukemia (intraperitoneal) in B6D2F1 (BDF1) mice. To be noted: T/C endpoint: mean survival time, higher T/C = longer survival.
[1] abbreviates: dose: 200.0 mg/kg/injection, schedule: Q01DX009 (ip), vehicle: saline with Tween-80.
Setting [2] is: dose: 100.0 mg/kg/injection, schedule: Q04DX003 (ip), vehicle: saline with Tween-80.
Where [3] appears, read: dose: 200.0 mg/kg/injection, schedule: Q04DX003 (ip), vehicle: saline with Tween-80.

The list does not hold the whole screen: it is rich in T/C values a quarter to a half above the control, in often repeated tests (any T/C) and in doses without a T/C. Further doses and runs are listed elsewhere. T/C is the treated group as % of the vehicle group. Some doses have a count of surviving animals in place of a T/C: the source files T/C as zero there, which appears to mark a toxic dose or a test without result, not a measured value. Some doses without a T/C left all or most animals alive at the check, yet need not have been tolerated: the source hardly ever lists a survival T/C far under the control, and the zero likely stands for such cases as well. Survivors were counted at the toxicity check, usually on the fifth day, unless a day is given; later deaths do not show. Schedule codes are those of the source, read here as Q, the interval in days (D) or hours (H), X, the number of doses. Some schedules carry Z or #; the key to these is not given. Counts like (3×) count equal records among those shown. For survival time, this PubChem deposit counts one and a half times the control or more as active, and values a quarter to a half above the control carry no call in these data; other NCI protocols may use other cut-offs. Some entries were tested several times; their values stand side by side, smallest first. Some T/C values are followed by the survivors on the day toxicity was checked, most often the fifth; without a count, all were alive then.

As for `CC(=O)Nc1ccc2c(Nc3ccc(NS(C)(=O)=O)cc3)c3ccccc3nc2c1`, the T/C is 132 % of control (dose: 0.2 mg/kg/injection, schedule: Q01DX009 (ip), vehicle: Klucel (hydroxypropylcellulose) (HPC)); 145 % of control (dose: 0.4 mg/kg/injection, schedule: Q01DX009 (ip), vehicle: Klucel (hydroxypropylcellulose) (HPC)); 128 % of control (dose: 1.6 mg/kg/injection, schedule: Q01DX009 (ip), vehicle: saline with Tween-80); 147 % of control [5 of 6 alive] (dose: 2.4 mg/kg/injection, schedule: Q01DX009 (ip), vehicle: saline with Tween-80); 142 % of control (dose: 3.0 mg/kg/injection, schedule: Q01DX009 (sc), vehicle: saline); 139 % of control (dose: 3.6 mg/kg/injection, schedule: Q01DX009 (ip), vehicle: saline with Tween-80). For the same molecule, the T/C (dose: 6.25 mg/kg/injection, schedule: Q01DX009 (ip), vehicle: saline with Tween-80) is 136 % of control; the T/C (dose: 6.25 mg/kg/injection, schedule: Q01DX009 (sc), vehicle: saline) was 138 % of control; the T/C (dose: 12.5 mg/kg/injection, schedule: Q01DX009 (ip), vehicle: Klucel (hydroxypropylcellulose) (HPC)) is 127 % of control. In addition, the survivor count is 6 of 6 (dose: 25.0 mg/kg/injection, schedule: Q01DX009 (ip), vehicle: saline with Tween-80); 10 of 10 (dose: 25.0 mg/kg/injection, schedule: Q01DX009 (sc), vehicle: saline); 6 of 6 (dose: 50.0 mg/kg/injection, schedule: Q01DX009 (ip), vehicle: saline with Tween-80); 6 of 6 (dose: 100.0 mg/kg/injection, schedule: Q01DX009 (ip), vehicle: saline with Tween-80); 5 of 6 under setting [1].
On to `CCCCCOC(=O)C(C)(O)C(Cl)c1ccccc1` (configuration not stated), for which the T/C (dose: 400.0 mg/kg/injection, schedule: Q04DX002 (ip), vehicle: saline) is 137 % of control.
On to `CS(=O)(=O)Nc1ccc(Nc2c3ccccc3nc3cc(N)ccc23)cc1`, for which the T/C reads like this: (dose: 0.12 mg/kg/injection, schedule: Q01DX009 (ip), vehicle: saline) 125 % of control; (dose: 0.18 mg/kg/injection, schedule: Q01DX009 (ip), vehicle: saline) 129 % of control; (dose: 0.27 mg/kg/injection, schedule: Q01DX009 (ip), vehicle: saline) 145 % of control; (dose: 1.0 mg/kg/injection, schedule: Q01DX009 (sc), vehicle: saline) 131 % of control; (dose: 2.0 mg/kg/injection, schedule: Q01DX009 (sc), vehicle: saline) 127 % of control; (dose: 10.0 mg/kg/injection, schedule: Q01DX001 (ip), vehicle: saline) 132 % of control. Also, the survivor count reads like this: (dose: 2.5 mg/kg/injection, schedule: Q01DX009 (ip), vehicle: saline) 6 of 6; (dose: 8.0 mg/kg/injection, schedule: Q01DX009 (sc), vehicle: saline) 10 of 10; (dose: 10.0 mg/kg/injection, schedule: Q01DX009 (ip), vehicle: saline) 5 of 6; (dose: 20.0 mg/kg/injection, schedule: Q01DX009 (ip), vehicle: saline) 0 of 6; (dose: 80.0 mg/kg/injection, schedule: Q01DX001 (ip), vehicle: saline) 0 of 6.
Turning to `CCOC(=O)NCC(CCN1CCCC1)(CCN1CCCC1)c1cccc2ccccc12`, for the setting “dose: 100.0 mg/kg/injection, schedule: Q04DX002 (ip), vehicle: saline”, the survivor count is 1 of 3.
As to `COc1ccc(S(=O)Nc2ccccc2)cc1` (configuration not stated), the survivor count is given as 3 of 6 under setting [2] and 2 of 6 under setting [3].
For `O=C(Nc1ccc(C2=NCCCN2)cc1)Nc1ccc(C2=NCCCN2)cc1`, the survivor count reads like this: (dose: 5.0 mg/kg/injection, schedule: Q01DX Z (ip), vehicle: saline) 6 of 6; (dose: 6.6 mg/kg/injection, schedule: Q01DX Z (ip), vehicle: saline) 3 of 6; (dose: 10.0 mg/kg/injection, schedule: Q01DX Z (ip), vehicle: saline) 0 of 6; (dose: 15.0 mg/kg/injection, schedule: Q01DX Z (ip), vehicle: saline) 0 of 6.
As for `O=C(O)c1cc([N+](=O)[O-])ccc1P(=O)(O)O`, the survivor count (dose: 300.0 mg/kg/injection, schedule: Q01DX001 (ip), vehicle: saline) is recorded as 3 of 6.
Turning to `CN=C(NC)c1ccc(NC(=O)Nc2ccc(NC(=O)Nc3ccc(C(=NC)NC)cc3)cc2)cc1`, the T/C was 125 % of control (dose: 13.0 mg/kg/injection, schedule: Q01DX Z (ip), vehicle: carboxymethylcellulose (CMC)); 125 and 131 % of control (dose: 13.3 mg/kg/injection, schedule: Q01DX Z (ip), vehicle: saline); 128 % of control (dose: 20.0 mg/kg/injection, schedule: Q01DX Z (ip), vehicle: carboxymethylcellulose (CMC)); 134 % of control (dose: 20.0 mg/kg/injection, schedule: Q01DX Z (ip), vehicle: saline); 129 % of control (dose: 30.0 mg/kg/injection, schedule: Q01DX Z (ip), vehicle: saline). For the same molecule, the survivor count (dose: 45.0 mg/kg/injection, schedule: Q01DX Z (ip), vehicle: carboxymethylcellulose (CMC)) is recorded as 5 of 6.
In the case of `CC1(C)N=C(N)N=C(N)N1c1cccc(OCCOc2cccc([N+](=O)[O-])c2)c1`, the survivor count is, setting by setting: (dose: 100.0 mg/kg/injection, schedule: Q01DX001 (ip), vehicle: saline) 2 of 6; (dose: 200.0 mg/kg/injection, schedule: Q01DX001 (ip), vehicle: saline) 0 of 6; (dose: 400.0 mg/kg/injection, schedule: Q01DX001 (ip), vehicle: saline) 0 of 6.
Regarding `CC1=C(O)C(=O)C(C2=C(O)C(=O)C(C)=C(O)C2=O)=C(O)C1=O`, the survivor count by setting is: (dose: 20.0 mg/kg/injection, schedule: Q01DX001 (ip), vehicle: carboxymethylcellulose (CMC)) 0 of 4; (dose: 40.0 mg/kg/injection, schedule: Q01DX001 (ip), vehicle: carboxymethylcellulose (CMC)) 0 of 4; (dose: 80.0 mg/kg/injection, schedule: Q01DX001 (ip), vehicle: carboxymethylcellulose (CMC)) 0 of 4; (dose: 100.0 mg/kg/injection, schedule: Q01DX001 (ip), vehicle: carboxymethylcellulose (CMC)) 0 of 4; (dose: 200.0 mg/kg/injection, schedule: Q01DX001 (ip), vehicle: carboxymethylcellulose (CMC)) 0 of 4; (dose: 400.0 mg/kg/injection, schedule: Q01DX001 (ip), vehicle: carboxymethylcellulose (CMC)) 0 of 4. Further, the survivor count (dose: 2000.0 micrograms/kg/injection, schedule: Q01DX Z (ip), vehicle: carboxymethylcellulose (CMC)) is 1 of 6.
`CC(=O)OCC1OC(N2C(=O)/C(=C/c3ccc([N+](=O)[O-])cc3)SC2=S)C(OC(C)=O)C(OC(C)=O)C1OC(C)=O` (configuration not stated): the survivor count by setting is: (dose: 25.0 mg/kg/injection, schedule: Q01DX005 (ip), vehicle: other) 0 of 6; (dose: 50.0 mg/kg/injection, schedule: Q01DX005 (ip), vehicle: other) 0 of 6; (dose: 100.0 mg/kg/injection, schedule: Q01DX005 (ip), vehicle: other) 1 of 6; (dose: 200.0 mg/kg/injection, schedule: Q01DX005 (ip), vehicle: other) 0 of 6; (dose: 400.0 mg/kg/injection, schedule: Q01DX005 (ip), vehicle: other) 0 of 6.
As for `CCC(O)C[As](=O)(O)c1ccccc1Cl` (configuration not stated), the survivor count (dose: 25.0 mg/kg/injection, schedule: Q04DX003 (ip), vehicle: saline with Tween-80) is 0 of 6; the survivor count (dose: 50.0 mg/kg/injection, schedule: Q04DX003 (ip), vehicle: saline with Tween-80) is reported as 0 of 6; the survivor count under setting [2] was 0 of 6 (2×); the survivor count under setting [3] was 0 of 6; the survivor count (dose: 400.0 mg/kg/injection, schedule: Q04DX003 (ip), vehicle: saline with Tween-80) is recorded as 0 of 6.
In the case of `CC(C)(C)c1ccc(O)cc1`, the survivor count reads like this: under setting [1], 2 of 6; (dose: 400.0 mg/kg/injection, schedule: Q01DX009 (ip), vehicle: saline with Tween-80) 0 of 6.
